Assay results taken from US5047431A, “1,1,2-triphenylbut-1-ene derivatives” (Klinge Pharma GmbH & Co., priority 1980, dated 1991).

Target: T1, estradiol receptor (Oryctolagus cuniculus, UniProt G1SML6)
T1 construct: The uterus cytosol of female, prepuberal white rabbits; from tissue; host or cells: uterus cytosol of female prepuberal New Zealand white rabbits
T1 sequence (G1SML6 1-598): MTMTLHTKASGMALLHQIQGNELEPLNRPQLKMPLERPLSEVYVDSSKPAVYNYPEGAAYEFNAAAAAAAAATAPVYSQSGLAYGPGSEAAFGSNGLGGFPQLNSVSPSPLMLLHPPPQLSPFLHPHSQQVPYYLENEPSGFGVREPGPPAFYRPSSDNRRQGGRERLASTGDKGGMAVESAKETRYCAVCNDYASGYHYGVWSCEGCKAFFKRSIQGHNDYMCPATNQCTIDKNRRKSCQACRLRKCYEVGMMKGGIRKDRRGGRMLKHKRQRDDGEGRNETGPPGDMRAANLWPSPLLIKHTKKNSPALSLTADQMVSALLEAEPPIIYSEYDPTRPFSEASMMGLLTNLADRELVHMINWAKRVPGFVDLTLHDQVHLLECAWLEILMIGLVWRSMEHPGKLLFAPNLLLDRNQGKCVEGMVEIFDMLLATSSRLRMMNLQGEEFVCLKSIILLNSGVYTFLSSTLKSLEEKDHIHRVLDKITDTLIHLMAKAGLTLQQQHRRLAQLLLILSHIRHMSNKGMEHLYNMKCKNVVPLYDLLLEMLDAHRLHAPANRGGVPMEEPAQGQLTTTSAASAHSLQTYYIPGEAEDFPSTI
Experiment: Binding affinity to the estradiol receptor (displacement of [3H]-estradiol from uterus cytosol)
Design: species or system rabbit (New Zealand rabbits)
Method: The determination of the binding affinity to the estradiol receptor was made using rabbit uterus cytosol.
The binding affinity to the estradiol receptor was measured according to the method of N. Devleeschouwer, G. Leclercq, A. Danguy and J.C. Heuson [Europ.
H]-estradiol from the estradiol receptor.

Compound: CC/C(=C(\c1ccccc1)c1ccc(OCCN(C)C)cc1)c1ccccc1 [Tamoxifen, (Z)-1-[4'-(2-dimethylaminoethoxy)phenyl]-1,2-diphenylbut-1-ene]
- IC50: 380 nM
